Some entries share one result that the patent states for a list of compounds.
Assay: Solubility of free state and salt forms in water by HPLC
Assay type: physicochemical
Settings: water at 25° C.
Procedure: HPLC solubility data were collected with Agilent 1260 high performance liquid chromatograph. The chromatographic column used was Poroshell 120 EC-C18 ([…]), the detection wavelength was 254 nm, column temperature for detection was 40° C., flow rate was 1.5 mL/min, and the sample volume was 5 μL. A sample was dissolved in mobile phase B to prepare a sample solution of a concentration about 0.45 mg/mL, and HPLC detection was performed according to the following gradient elution mode to obtain concentration in the sample.
Then samples were taken and filtered, and the concentrations were detected by HPLC. The solubility of the active ingredient in each of the samples in water was calculated.

Compound	Solubility in water higher than that of the known free state	Solubility in water higher than those of other conventional salts (calcium salt, citrate, phosphate, hydrochloride)
CC(C)Cc1ccc(-c2nc(-c3ccc(CN4CC(C(=O)O)C4)c(F)c3)no2)cc1 [sulfate of 1-{2-fluoro-4-[5-(4-isobutylphenyl)-1,2,4-oxadiazole-3-yl]benzyl}-3-azetidinecarboxylic acid]	10-20 times	3-8 times
CC(C)Cc1ccc(-c2nc(-c3ccc(CN4CC(C(=O)O)C4)c(F)c3)no2)cc1.O=C(O)/C=C\C(=O)O [maleate of 1-{2-fluoro-4-[5-(4-isobutylphenyl)-1,2,4-oxadiazole-3-yl]benzyl}-3-azetidinecarboxylic acid]	10-20 times	3-8 times

— patent US11512078B2, “Addition salt of S1P1 receptor agonist and crystal form thereof, and pharmaceutical composition” (SUZHOU CONNECT BIOPHARMACEUTICALS, LTD., priority 2018, dated 2022)
